Out of some 52,000 sequences screened, about 210 (0.4%) were called active.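 Rule for the calls: active = gene whose silencing raises cell survival under the drug, median off-target-corrected z-score across its silencing RNAs 2 or more; inactive = the rest.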 Some of the results follow.
Experiment: Resistance to Poly (ADP-Ribose) Polymerase inhibitor: Gene Identification via Genome-wide siRNA Screen
Details: mouse BRCA2 R2336H ES cells, olaparib, CellTiter-Glo viability; stronger effect = higher value
Summary of the method: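 Genome-wide siRNA screen (3 siRNAs/gene, 20 nM) in mouse ES cells carrying hypomorphic BRCA2 R2336H; olaparib 500 nM added 48 h post-transfection, CellTiter-Glo viability 72 h later. Normalized to plate-median negative control; MAD z-scores, gene median, seed-adjusted.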

Sequence	z-score
CGAUACCUUCGCCAAAAAGTT against Tbc1d1	inactive: -0.582
GGGCUCCAAUUUGCUACCATT against Grp	inactive: 2.36
GGAUGAAGAUGCUGUCAGCTT against Arhgef3	inactive: -1.11
GGCAGAGGCUGACUUCUACTT against Kctd11	inactive: 0.39
GCAAAUGUCUCUUCAGUGATT against Olfr885	inactive: -0.338
CCGACCAUCUGUGGAAAUATT against E130306M17Rik	inactive: 1.03
GGCCCUCCUCAAGACUCAUTT against 2810417J12Rik	inactive: -0.307
GGGCCUAAAUGUGAAACACTT against Src	inactive: -0.87
GGUCACAGAUAAGAAUGACTT against Cd96	inactive: 0.663
GGUAUGGAGUGAAGUGACCTT against Mmp11	inactive: 0.271
GGCUAACACUUAAAUUAGCTT against Atoh8	inactive: 0.118
CCAUCUACCGGAAAAUAACTT against Cecr5	inactive: -0.0915
GGAGUUUCAGCAGUCGUGATT against Prkrip1	inactive: 1.16
GGACCAUAAAGUGUUACUATT against D230019K20Rik	inactive: -1.24
GAAAAAAAUCCGUUCCCUCTT against Mrpl33	inactive: 0.246
GGCUGAUUAGAAUACCUCCTT against Adra2b	inactive: 0.511
GUUAUAGCGGCGAAGGUGUTT against BC049812	inactive: -0.322
GGCCAUUUUCAACAAGAACTT against BC017643	inactive: 1.09
GGUUCUGAUUUUUAGUGGUTT against E230019M04	inactive: -0.102
CGAUGACACUAUUAUGAGATT against B930007M17Rik	inactive: 0.387
GGAUAGAGAGAGGUAGCAUTT against Lrrc15	inactive: 0.131
CCCUGAGGCAAAGAAAUGUTT against Msh3	inactive: 0.439
GCGAAACUACCGACAGUGUTT against Irf2	inactive: -1.8
GGGAUUUUGUCAUCUAUUCTT against 4632412E09Rik	inactive: -1.69
GGCCCAAUUGUCGAUAUCCTT against 2300002M23Rik	inactive: 0.824
GGCAUUACGUCAUGUACUATT against Aes	inactive: -0.0855

Sequence	z-score
CAGCAAUGACCUGAUGUUATT against Klk21	inactive: -0.712
GGGUGAUAAAAUUCAGAUUTT against Gpr88	inactive: 0.00429
GCAGUUGGGACAAGCCUUUTT against Als2cr3	inactive: -0.815
CCAUGUUCAAGUCAAAACUTT against 9630046K23Rik	inactive: 0.706
GGAGAAGUAUGAAAUAGCATT against Rad51	inactive: -2.51
GGUUUUUGUUGUAAUAGGCTT against Olfr915	inactive: -0.232
GGGAGAUGAACCUCUCAGATT against 0610038K03Rik	inactive: -0.243
GCUGAUCAAAUUGGCCUGUTT against Olfr984	inactive: -1.53
CGACCUCCAGUAAUAACCUTT against Olfr310	inactive: -1.95
GGUGCCAUACCAUUUCCUATT against Olfr351	inactive: 0.539
GGAAAAUCUUUACAGAGCGTT against Zfp617	inactive: 0.985
GGAUACCAAUAGAACAAAGTT against C130032F08Rik	inactive: -0.403
GGUACUUUCCUUUCGAUGCTT against A030001H23Rik	inactive: 1.01
GGUUGGUUCAGAUAAGUCCTT against AU040377	inactive: 0.682
GGAAGAUGGUUUGUAGAUATT against Ddx56	inactive: 0.0611
GGAUGUUUUGGAGCCCUAGTT against Scml4	inactive: -1.59
GAUCCUGCAUCUUUAGUGUTT against Ascl1	inactive: -0.928
GCCGAUUCAAUACUGUGACTT against Rnf149	inactive: -0.608
GGAAGAAUGUAAGUAUACCTT against Zfp96	inactive: 1.92
GGGAUUGGCACUUUCCAAGTT against Akap7	inactive: -0.776
GGAUUGGUUCAUGACCUGATT against 4921513B05Rik	inactive: -1.39
GGAGGUGUUUUAUAUGAACTT against BC020077	inactive: -0.246
GGGUGAGUGUCGGAACUUUTT against Sema6b	inactive: 0.213
GGGAGAUCUCUCACAGAUCTT against Gja10	inactive: -1.95
GGUUUUAAAGCAUCUUCGUTT against Pard6g	inactive: 0.236
GGGAGACCAUUGUUCAACUTT against Stk23	inactive: -0.0954

Sequence	z-score
GGAGGAAGUUGUAUAUUUUTT against Psmd10	inactive: -0.658
GGCAUAUAAGGACUUCUACTT against C5r1	inactive: 0.224
GAUGGUGUCUAGUGAGAGCTT against Oxct2b	inactive: 0.802
GGCUACUCAACCGAUAGUGTT against 2610039C10Rik	inactive: 0.329
GGACGUAGAUUGGUACCUCTT against 2210018M11Rik	inactive: 0.178
CCCAUUGAACAGGAUGUUATT against 2310005O14Rik	inactive: 0.316
GGAAGUGUGAACUUCAUCATT against Zdhhc6	inactive: 1.18
GCGAACAUCCCAACAACAGTT against Igfbp4	inactive: -0.0551
GCUACUGAGUUAUAGAAAGTT against Olfr1316	inactive: 0.323
GGAAAACUUACCUUCUUAATT against 2610020C11Rik	inactive: -1.23
GGAAGCCACCUUAACAUUATT against 1700012B18Rik	inactive: -0.0151
CCACAGUAUCUUAAUGCAATT against Eif3s6	inactive: -2.14
GCCAUGCAAAUCGAUGGGUTT against Rora	inactive: 0.641
GCUGGACUAAUCGACAGCATT against 5730559C18Rik	inactive: -0.0932
CCACAUCGAGGACUGGUAGTT against 1110049G11Rik	inactive: -0.141
CCUAUCAUGUUAAAAACAGTT against Grem2	inactive: 1.02
GGCCAUUGCCAUUGUGUGUTT against 1700095N21Rik	inactive: 0.00528
GGACUUGGAGUUUCGUAAATT against Lmnb1	inactive: 3.07
GGUCAGCAGUUUUCUAACUTT against C130038G02Rik	inactive: -0.394
GGACCACUAGACCUGAUAATT against Itgb1bp1	inactive: 0.746
GCCUGUGUAUUACUUUUUUTT against 6720455I24Rik	inactive: -0.536
GCGGGUGCUUUCUUGUUGUTT against Dfy	inactive: -0.334
CGGACGACAUUACAAUUGATT against Nrxn2	inactive: -1.02
GGCCUUAAUUAUGUCUUAGTT against Slc25a25	inactive: -2.21
GGUUCCUAGUAUUAUGUACTT against 2010309E21Rik	inactive: 1.62
CUUUGGUAGGAAACCUCUUTT against Olfr1281	inactive: 0.915

6 entries picked at random from the list so far:
Sequence	z-score
CCCAUUGAACAGGAUGUUATT against 2310005O14Rik	inactive: 0.316
GGCUAACACUUAAAUUAGCTT against Atoh8	inactive: 0.118
GGCCCAAUUGUCGAUAUCCTT against 2300002M23Rik	inactive: 0.824
GGAGAAGUAUGAAAUAGCATT against Rad51	inactive: -2.51
GGUAUGGAGUGAAGUGACCTT against Mmp11	inactive: 0.271
GGCCAUUGCCAUUGUGUGUTT against 1700095N21Rik	inactive: 0.00528

Following part

Sequence	z-score
GGAAAUUGUCUUUGGCUUUTT against Otop1	inactive: -0.254
GGCUCACAAUGAAAAAGGUTT against BC030314	inactive: -1.03
CCCUAAAAGACAAAGUGCUTT against Cklfsf3	inactive: 0.903
GCUUAACAGGAGCAUUGGCTT against Raly	inactive: -1.81
GGAAAGCUACUGUCAGAGUTT against Olfr473	inactive: 0.453
GGUGCUAUUAUCGUGGAUCTT against AW538196	inactive: 1.36
CGUUAGUGCUGGUUAAUGATT against Cdk5r1	inactive: -0.0496
CCACGAUUUCCCAAUCCUGTT against Fiz1	inactive: 1.28
GGAAGAUAGAGCAUAUAUCTT against Tm4sf13	inactive: 1.14
GGUCAUGAACCUCAUCAUCTT against Hem1	inactive: 0.918
GGAUCAGCUGGACAUUCUUTT against 1500011H22Rik	inactive: -1.1
GGUCUGGAGAUUGUAUUUUTT against Ptpn21	inactive: -1.97
GGUGGUGACCUCCACAGAUTT against Clcnka	inactive: -1.88
GGAAGCUGUGCUCUCCAUGTT against C920025J10	inactive: -0.548
GGCUUUGUGCUUUAACCUUTT against 6430401A05Rik	inactive: 0.992
GGAGGGUAGGUCCUUUGUATT against Pcdhb16	inactive: -2.42
GCCGCUGAACAAUUUAUCCTT against Rnase6	inactive: -0.817
GCAGAGGCUCUCCUUAUAGTT against 2900054P12Rik	inactive: -0.379
GGUGGACAAGUUCAAAGCCTT against Apg4d	inactive: 1.06
GCUUUUCAGCAUGGAUUUATT against Rab6ip1	inactive: -0.518
GGCUUCACAUUUUGGCAGUTT against Stat6	inactive: 0.718
GCCCUGUUUACACCUCUGATT against Sec23a	inactive: 0.352
GAUGUACUUAUUCAUGAUGTT against Olfr353	inactive: -0.222
GCUGGCUAGCCAUAACCAUTT against 4933414G08	inactive: -0.58

— PubChem BioAssay AID1347423 (Functional Genomics Laboratory (NCATS/FGL), 2020)
